Data published in article PMC6888823.
No constants are given. Whether binding was seen depends on the method and setting. Binding seen in cells or lysates may run through a third protein.

Protein sequences, listed by entry. Tags and fused reporters are not part of them.
UniProt P37238: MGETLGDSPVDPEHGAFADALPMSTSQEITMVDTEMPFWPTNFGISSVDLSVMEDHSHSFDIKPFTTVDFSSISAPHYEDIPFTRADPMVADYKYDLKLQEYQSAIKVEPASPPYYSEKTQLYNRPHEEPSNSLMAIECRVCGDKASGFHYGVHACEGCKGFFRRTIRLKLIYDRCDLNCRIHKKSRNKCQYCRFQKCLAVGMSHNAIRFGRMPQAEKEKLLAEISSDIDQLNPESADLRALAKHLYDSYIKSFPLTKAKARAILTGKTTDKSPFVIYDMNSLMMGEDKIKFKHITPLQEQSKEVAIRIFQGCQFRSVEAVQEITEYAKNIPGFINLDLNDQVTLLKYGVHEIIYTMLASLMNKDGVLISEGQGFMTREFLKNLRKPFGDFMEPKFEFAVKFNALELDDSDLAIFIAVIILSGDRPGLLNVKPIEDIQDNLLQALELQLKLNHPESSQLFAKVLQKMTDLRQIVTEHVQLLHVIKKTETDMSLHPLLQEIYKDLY

Target: T1, Heat shock protein A12A (HSPA12A) (mouse (endogenous in 3T3-L1)) (UniProt Q8K0U4)
T1 sequence: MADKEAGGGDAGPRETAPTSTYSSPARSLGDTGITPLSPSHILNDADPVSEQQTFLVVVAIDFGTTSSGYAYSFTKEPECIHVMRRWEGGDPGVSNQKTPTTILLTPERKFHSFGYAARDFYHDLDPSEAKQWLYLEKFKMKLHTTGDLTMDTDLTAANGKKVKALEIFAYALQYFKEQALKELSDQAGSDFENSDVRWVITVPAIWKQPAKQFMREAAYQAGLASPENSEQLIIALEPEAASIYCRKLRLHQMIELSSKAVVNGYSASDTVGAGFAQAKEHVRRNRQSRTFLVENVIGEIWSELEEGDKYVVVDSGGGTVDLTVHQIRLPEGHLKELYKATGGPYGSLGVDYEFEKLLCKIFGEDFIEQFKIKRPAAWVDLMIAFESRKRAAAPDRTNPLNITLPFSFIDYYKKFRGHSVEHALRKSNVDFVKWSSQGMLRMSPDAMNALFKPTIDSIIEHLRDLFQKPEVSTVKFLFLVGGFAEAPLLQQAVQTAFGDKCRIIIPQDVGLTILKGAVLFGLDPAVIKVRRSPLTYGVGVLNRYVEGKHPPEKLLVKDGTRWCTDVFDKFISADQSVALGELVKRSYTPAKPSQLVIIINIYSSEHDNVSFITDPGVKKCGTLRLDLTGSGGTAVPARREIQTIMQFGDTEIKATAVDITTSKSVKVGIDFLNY
Experiment: co-IP; 3T3-L1 cells with or without differentiation precipitated with anti-HSPA12A antibody, immunoblot for PPARγ; input as positive control, normal IgG as negative control

- binding: no binding
Substance: Peroxisome proliferator-activated receptor γ (PPARγ) (from UniProt P37238 1-505)
